In patent US8058507B2, “HOPM1 mediated disease resistance to Pseudomonas syringae in Arabidopsis” (priority 2007, dated 2011):
At least one compound was matched to its structure with a doubt left.

System: Pst DC3000 ΔCEL mutant
Experiment: Bacterial multiplication and disease symptoms in HopM1 transgenic Arabidopsis plants
Format: in vivo, Pseudomonas syringae
Details: 0.003 μM spray; transgenic plants expressing full-length HopM1
Description: Following inoculation, infected plants were monitored daily over a 3- to 4-day period for symptom development and bacterial multiplication. For experiments described in FIGS. 1 and 5, plants were sprayed with 30 μM dexamethasone (DEX) 24 h before bacterial inoculation (1×10^6 cfu/ml).
Leaves were harvested and surface sterilized as follows: 1) whole leaves were removed from a host plant and gently mixed in a 70% ethanol solution for 1 minute. Leaves were blotted briefly on paper towels then rinsed in sterile distilled water for 1 minute, then blotted dry on paper towels. Leaf disks were excised from leaves with a 0.5 cm^2 or smaller cork borer, depending on the size of the sample leaves; 2) leaf disks from the leaves of 2 or more independent replicate plants were pooled for a single tissue sample and placed in a 1.5-mL microfuge tube with 100 μL sterile distilled water, the amount of leaf tissue per tube was recorded as leaf surface area. Three or more samples were harvested for each time point. […] The number of serial dilutions necessary to get countable colonies were determined for each sample, however dilutions to 10^−7 were usually sufficient for any bacterial strain; 7) The samples were plated on the appropriate medium (e.g., Low salt Luria Bertani) supplemented with the necessary antibiotics to select for the specific inoculated bacterial strain. […]

C[C@@H]1C[C@H]2[C@@H]3CCC4=CC(=O)C=C[C@]4(C)[C@@]3(F)[C@@H](O)C[C@]2(C)[C@@]1(O)C(=O)CO [DEX, dexamethasone]
complementation of the Pst DC3000 ΔCEL mutant: induced complementation
